The source of these data is publication PMC11231755.

Test [1] concerns the target T1, T25-ORF6^O4 (Klebsiella pneumoniae) (UniProt Q767E1).
T1 sequence: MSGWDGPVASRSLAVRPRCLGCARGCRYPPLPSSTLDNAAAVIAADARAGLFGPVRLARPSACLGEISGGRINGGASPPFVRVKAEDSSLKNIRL
The experiment in a line: two-hybrid; bacterial adenylate cyclase two-hybrid (T18 and T25 fusions) in E. coli BTH101, 0.5 mM IPTG, 30 °C; β-galactosidase activity in microplates and colour on agar plates.

In test [2] the target is T2, ORF6^O7-T25 (Klebsiella pneumoniae) (UniProt Q767E1).
T2 sequence: T1 sequence
Described as above.

Results are given in words; binding and its absence hold for the method and conditions named. Binding can be weak; no strength is given.

For the substance “ORF5^O4-T18 (Klebsiella pneumoniae) (enzyme)”, the binding result in test [1] is on record as “binds”.

Consider “ORF7^O7-T18 (Klebsiella pneumoniae) (enzyme)”, for which, in test [2], the binding entry is given as “binds”.
